# In the supplement of paper PMC8728848:
# Some of the results follow.
# B1: FimA (Actinomyces oris) (protein)
# chain: MHHHHHHSSGVDLGTENLYFQSNAETPNYGNIKTDATGSLVIHKHLTGGGKDIGTPTGTAQNADDKGPAVEGVVFTAYPITDINLKDPAGWDTISNLSRTGVPDSACANPAAPTLGAHQFGTPKVSPATTKEGLATITEMPVQAYLVCETTTPGDIVQKAKPFVVTIPHPNTAAGADGQWIYDVNVYPKNEAIDVDKTIQAQKLNGYGVGSLIKFPVESTAPTLDAKSFYKYFQLKDTLDERLSEVTATDVSLEGTPLQPTDYKVETKQQTVTVTFTAEGLKKIKAAPGKKVSAVFQGKVTKAGNGAITNRAQVISDTLYAEQPPTPETPPTDPENPPTSDEVISRWGDLSIKKVDTHQQGQTKAGLQGAQFQLYKAKNAYANTCSNEKEGAPIAINGQTTLTTDAQGAIDIKGLFISDSIDGADRDNQVNAMERCYVLVETKAPAGYVLPAGNGAATPVKVKAGEETTDNVTVENTKQSVPGLPLTG
# How the values were obtained:
# Test in all cases: glycan array binding signal (z-score within array); higher = stronger binding
# Conditions in all cases: glycan notation: IUPAC condensed, linker removed
# [1] = biological target: Gal(b1-4)GlcNAc(b1-6)GalNAc
# Method in brief: (§1)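 Negative Z-scores can be read as non-binding. The Z-score is calculated within each array and then averaged across arrays of one protein sequence at different concentrations or buffers and across linkers. Arrays, 3228 in all, were curated from the Consortium for Functional Glycomics database and kept only where the protein sequence was available.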
# [2] = biological target: Gal(b1-4)GlcNAc(b1-6)[Gal(b1-3)]GalNAc
# Method in brief: as §1
# [3] = biological target: Gal(b1-4)GlcNAc(b1-6)[Gal(b1-4)GlcNAc(b1-3)]GalNAc
# Method in brief: as §1
# Gal(b1-4)GlcNAc6P = biological target: Gal(b1-4)GlcNAc6P
# Method in brief: as §1
# Gal(b1-6)Gal = biological target: Gal(b1-6)Gal
# Method in brief: as §1
# Gal3S(b1-3)GalNAc = biological target: Gal3S(b1-3)GalNAc
# Method in brief: as §1
# Gal3S(b1-3)GlcNAc = biological target: Gal3S(b1-3)GlcNAc
# Method in brief: as §1
# [4] = biological target: Gal3S(b1-3)[Fuc(a1-4)]GlcNAc
# Method in brief: as §1
# Gal3S(b1-4)Glc = biological target: Gal3S(b1-4)Glc
# Method in brief: as §1
# Gal3S(b1-4)Glc6S = biological target: Gal3S(b1-4)Glc6S
# Method in brief: as §1
# Gal3S(b1-4)GlcNAc = biological target: Gal3S(b1-4)GlcNAc
# Method in brief: as §1
# [5] = biological target: Gal3S(b1-4)[Fuc(a1-3)]Glc6S
# Method in brief: as §1
# [6] = biological target: Gal3S(b1-4)[Fuc(a1-3)]GlcNAc
# Method in brief: as §1
# [7] = biological target: Gal3S(b1-4)[Fuc(a1-3)]GlcNAc6S
# Method in brief: as §1
# Gal3S4S(b1-4)GlcNAc = biological target: Gal3S4S(b1-4)GlcNAc
# Method in brief: as §1
# Gal3S6S(b1-4)GlcNAc = biological target: Gal3S6S(b1-4)GlcNAc
# Method in brief: as §1
# Gal3S6S(b1-4)GlcNAc6S = biological target: Gal3S6S(b1-4)GlcNAc6S
# Method in brief: as §1
# Gal4S(b1-4)GlcNAc = biological target: Gal4S(b1-4)GlcNAc
# Method in brief: as §1
# Gal4S6S(b1-4)GlcNAc = biological target: Gal4S6S(b1-4)GlcNAc
# Method in brief: as §1
# Gal6P(b1-4)GlcNAc = biological target: Gal6P(b1-4)GlcNAc
# Method in brief: as §1
# Gal6S(b1-3)GlcNAc = biological target: Gal6S(b1-3)GlcNAc
# Method in brief: as §1
# Gal6S(b1-3)GlcNAc6S = biological target: Gal6S(b1-3)GlcNAc6S
# Method in brief: as §1
# Gal6S(b1-4)Glc = biological target: Gal6S(b1-4)Glc
# Method in brief: as §1
# Gal6S(b1-4)Glc6S = biological target: Gal6S(b1-4)Glc6S
# Method in brief: as §1
# Gal6S(b1-4)GlcNAc = biological target: Gal6S(b1-4)GlcNAc
# Method in brief: as §1
# Gal6S(b1-4)GlcNAc6S = biological target: Gal6S(b1-4)GlcNAc6S
# Method in brief: as §1
# GalNAc(a1-3)Gal = biological target: GalNAc(a1-3)Gal
# Method in brief: as §1
# GalNAc(a1-3)GalNAc = biological target: GalNAc(a1-3)GalNAc
# Method in brief: as §1
# [8] = biological target: GalNAc(a1-3)GalNAc(b1-3)Gal(a1-4)Gal(b1-4)Glc
# Method in brief: as §1
# [9] = biological target: GalNAc(a1-3)GalNAc(b1-3)Gal(a1-4)Gal(b1-4)GlcNAc
# Method in brief: as §1
# GalNAc(b1-3)Gal = biological target: GalNAc(b1-3)Gal
# Method in brief: as §1
# [10] = biological target: GalNAc(b1-3)Gal(a1-4)Gal(b1-4)GlcNAc
# Method in brief: as §1
# [11] = biological target: GalNAc(b1-3)Gal(a1-4)Gal(b1-4)GlcNAc(b1-3)Gal(b1-4)Glc
# Method in brief: as §1
# [12] = biological target: GalNAc(b1-3)Gal(a1-6)Gal(b1-4)Glc
# Method in brief: as §1
# GalNAc(b1-3)GalNAc = biological target: GalNAc(b1-3)GalNAc
# Method in brief: as §1
# GalNAc(b1-3)GlcNAc = biological target: GalNAc(b1-3)GlcNAc
# Method in brief: as §1
# GalNAc(b1-4)Gal(b1-4)Glc = biological target: GalNAc(b1-4)Gal(b1-4)Glc
# Method in brief: as §1
# GalNAc(b1-4)GlcNAc = biological target: GalNAc(b1-4)GlcNAc
# Method in brief: as §1
binder,measurement,setting,value
B1,glycan array binding signal (z-score),[1],0.299
same,glycan array binding signal (z-score),[2],-0.664
same,glycan array binding signal (z-score),[3],-0.188
same,glycan array binding signal (z-score),Gal(b1-4)GlcNAc6P,-0.808
same,glycan array binding signal (z-score),Gal(b1-6)Gal,-0.395
same,glycan array binding signal (z-score),Gal3S(b1-3)GalNAc,0.867
same,glycan array binding signal (z-score),Gal3S(b1-3)GlcNAc,1.03
same,glycan array binding signal (z-score),[4],0.625
same,glycan array binding signal (z-score),Gal3S(b1-4)Glc,0.47
same,glycan array binding signal (z-score),Gal3S(b1-4)Glc6S,-0.312
same,glycan array binding signal (z-score),Gal3S(b1-4)GlcNAc,-0.013
same,glycan array binding signal (z-score),[5],3.23
same,glycan array binding signal (z-score),[6],0.49
same,glycan array binding signal (z-score),[7],0.807
same,glycan array binding signal (z-score),Gal3S4S(b1-4)GlcNAc,-0.582
same,glycan array binding signal (z-score),Gal3S6S(b1-4)GlcNAc,0.229
same,glycan array binding signal (z-score),Gal3S6S(b1-4)GlcNAc6S,0.183
same,glycan array binding signal (z-score),Gal4S(b1-4)GlcNAc,0.095
same,glycan array binding signal (z-score),Gal4S6S(b1-4)GlcNAc,-0.001
same,glycan array binding signal (z-score),Gal6P(b1-4)GlcNAc,-0.719
same,glycan array binding signal (z-score),Gal6S(b1-3)GlcNAc,-0.701
same,glycan array binding signal (z-score),Gal6S(b1-3)GlcNAc6S,-0.671
same,glycan array binding signal (z-score),Gal6S(b1-4)Glc,0.187
same,glycan array binding signal (z-score),Gal6S(b1-4)Glc6S,0.624
same,glycan array binding signal (z-score),Gal6S(b1-4)GlcNAc,-0.234
same,glycan array binding signal (z-score),Gal6S(b1-4)GlcNAc6S,4.75
same,glycan array binding signal (z-score),GalNAc(a1-3)Gal,0.616
same,glycan array binding signal (z-score),GalNAc(a1-3)GalNAc,-0.618
same,glycan array binding signal (z-score),[8],-0.283
same,glycan array binding signal (z-score),[9],-0.436
same,glycan array binding signal (z-score),GalNAc(b1-3)Gal,-0.256
same,glycan array binding signal (z-score),[10],0.922
same,glycan array binding signal (z-score),[11],-0.25
same,glycan array binding signal (z-score),[12],-0.879
same,glycan array binding signal (z-score),GalNAc(b1-3)GalNAc,-0.512
same,glycan array binding signal (z-score),GalNAc(b1-3)GlcNAc,-0.211
same,glycan array binding signal (z-score),GalNAc(b1-4)Gal(b1-4)Glc,0.201
same,glycan array binding signal (z-score),GalNAc(b1-4)GlcNAc,0.303

# Part of the list above, tab-delimited:
binder	measurement	setting	value
B1	glycan array binding signal (z-score)	GalNAc(a1-3)Gal	0.616
same	glycan array binding signal (z-score)	GalNAc(a1-3)GalNAc	-0.618
same	glycan array binding signal (z-score)	[8]	-0.283
